From publication PMC12187917
These are yes or no findings as the source states them, for the method shown. In cells and extracts the contact can be indirect. Some results given as binding are weak or reduced against the parent protein; the word gives no strength.

By UniProt entry, the sequences of proteins in these tests, tags left out. Where a name states a change or a piece, a line headed by the entry shows the natural chain unless it says otherwise.
UniProt O70436: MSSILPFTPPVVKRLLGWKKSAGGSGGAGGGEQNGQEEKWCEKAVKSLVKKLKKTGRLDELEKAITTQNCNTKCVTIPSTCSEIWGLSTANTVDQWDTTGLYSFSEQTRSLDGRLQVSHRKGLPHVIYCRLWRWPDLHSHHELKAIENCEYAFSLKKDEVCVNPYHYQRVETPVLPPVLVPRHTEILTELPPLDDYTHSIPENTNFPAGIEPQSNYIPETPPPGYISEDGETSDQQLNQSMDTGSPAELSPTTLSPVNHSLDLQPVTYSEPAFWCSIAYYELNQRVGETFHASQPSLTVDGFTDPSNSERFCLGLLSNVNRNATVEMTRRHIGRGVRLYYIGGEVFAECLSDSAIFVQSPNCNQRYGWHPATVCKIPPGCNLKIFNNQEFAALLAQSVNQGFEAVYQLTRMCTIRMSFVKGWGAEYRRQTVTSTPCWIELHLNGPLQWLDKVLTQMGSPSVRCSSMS
UniProt P84025: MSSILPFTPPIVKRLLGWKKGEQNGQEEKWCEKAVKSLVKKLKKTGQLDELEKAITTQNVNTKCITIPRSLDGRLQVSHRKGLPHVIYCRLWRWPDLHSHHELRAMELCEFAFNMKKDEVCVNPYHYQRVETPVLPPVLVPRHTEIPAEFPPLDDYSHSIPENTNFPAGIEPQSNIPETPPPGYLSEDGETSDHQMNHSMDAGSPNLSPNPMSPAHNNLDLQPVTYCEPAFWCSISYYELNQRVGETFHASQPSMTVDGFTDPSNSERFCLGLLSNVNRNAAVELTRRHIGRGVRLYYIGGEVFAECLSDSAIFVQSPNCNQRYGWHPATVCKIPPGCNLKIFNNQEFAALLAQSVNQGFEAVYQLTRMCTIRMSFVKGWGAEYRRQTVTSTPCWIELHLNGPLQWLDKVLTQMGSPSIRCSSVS
UniProt Q01714: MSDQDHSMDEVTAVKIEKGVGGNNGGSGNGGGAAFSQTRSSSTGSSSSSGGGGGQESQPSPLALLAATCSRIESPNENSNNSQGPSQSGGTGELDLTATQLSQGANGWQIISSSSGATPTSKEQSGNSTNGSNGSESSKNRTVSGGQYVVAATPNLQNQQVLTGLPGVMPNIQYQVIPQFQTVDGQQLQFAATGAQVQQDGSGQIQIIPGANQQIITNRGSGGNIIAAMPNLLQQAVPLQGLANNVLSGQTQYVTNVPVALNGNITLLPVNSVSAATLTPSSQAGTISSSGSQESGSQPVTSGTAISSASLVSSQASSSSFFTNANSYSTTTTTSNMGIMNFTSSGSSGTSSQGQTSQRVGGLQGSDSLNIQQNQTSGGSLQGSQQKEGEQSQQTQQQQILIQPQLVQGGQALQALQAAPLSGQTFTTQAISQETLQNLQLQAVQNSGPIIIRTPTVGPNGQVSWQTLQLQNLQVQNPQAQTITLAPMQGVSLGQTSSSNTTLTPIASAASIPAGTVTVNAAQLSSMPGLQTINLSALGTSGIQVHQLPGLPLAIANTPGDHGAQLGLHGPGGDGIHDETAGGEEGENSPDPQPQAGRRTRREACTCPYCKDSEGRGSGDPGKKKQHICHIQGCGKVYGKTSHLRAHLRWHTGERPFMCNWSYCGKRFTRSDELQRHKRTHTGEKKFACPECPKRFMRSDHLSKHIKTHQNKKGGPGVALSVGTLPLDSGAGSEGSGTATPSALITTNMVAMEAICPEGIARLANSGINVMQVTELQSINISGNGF

Molecular target: Smad2/3 complex (rat (endogenous in SD rat hippocampus)) (UniProt O70436+P84025)
Experiment: co-IP; nuclear protein fraction of hippocampal tissue of control and AngII-treated rats; Smad2/3 antibody incubated with the samples overnight at 4 °C, washed with PBS, boiled; western blots for Sp1, c-Jun, c-Fos, IRF-7

binding: binds
Substance: specificity protein 1 (Sp1) (from UniProt Q01714 1-786)
